Assay results published in paper PMC4760400.
These are yes or no findings as the source states them, for the method shown. Binding seen in cells or lysates may run through a third protein. Some results given as binding are weak or reduced against the parent protein; the word gives no strength.

Sequences of proteins named here, by UniProt entry; tags and fusion partners are left off.
UniProt Q62976: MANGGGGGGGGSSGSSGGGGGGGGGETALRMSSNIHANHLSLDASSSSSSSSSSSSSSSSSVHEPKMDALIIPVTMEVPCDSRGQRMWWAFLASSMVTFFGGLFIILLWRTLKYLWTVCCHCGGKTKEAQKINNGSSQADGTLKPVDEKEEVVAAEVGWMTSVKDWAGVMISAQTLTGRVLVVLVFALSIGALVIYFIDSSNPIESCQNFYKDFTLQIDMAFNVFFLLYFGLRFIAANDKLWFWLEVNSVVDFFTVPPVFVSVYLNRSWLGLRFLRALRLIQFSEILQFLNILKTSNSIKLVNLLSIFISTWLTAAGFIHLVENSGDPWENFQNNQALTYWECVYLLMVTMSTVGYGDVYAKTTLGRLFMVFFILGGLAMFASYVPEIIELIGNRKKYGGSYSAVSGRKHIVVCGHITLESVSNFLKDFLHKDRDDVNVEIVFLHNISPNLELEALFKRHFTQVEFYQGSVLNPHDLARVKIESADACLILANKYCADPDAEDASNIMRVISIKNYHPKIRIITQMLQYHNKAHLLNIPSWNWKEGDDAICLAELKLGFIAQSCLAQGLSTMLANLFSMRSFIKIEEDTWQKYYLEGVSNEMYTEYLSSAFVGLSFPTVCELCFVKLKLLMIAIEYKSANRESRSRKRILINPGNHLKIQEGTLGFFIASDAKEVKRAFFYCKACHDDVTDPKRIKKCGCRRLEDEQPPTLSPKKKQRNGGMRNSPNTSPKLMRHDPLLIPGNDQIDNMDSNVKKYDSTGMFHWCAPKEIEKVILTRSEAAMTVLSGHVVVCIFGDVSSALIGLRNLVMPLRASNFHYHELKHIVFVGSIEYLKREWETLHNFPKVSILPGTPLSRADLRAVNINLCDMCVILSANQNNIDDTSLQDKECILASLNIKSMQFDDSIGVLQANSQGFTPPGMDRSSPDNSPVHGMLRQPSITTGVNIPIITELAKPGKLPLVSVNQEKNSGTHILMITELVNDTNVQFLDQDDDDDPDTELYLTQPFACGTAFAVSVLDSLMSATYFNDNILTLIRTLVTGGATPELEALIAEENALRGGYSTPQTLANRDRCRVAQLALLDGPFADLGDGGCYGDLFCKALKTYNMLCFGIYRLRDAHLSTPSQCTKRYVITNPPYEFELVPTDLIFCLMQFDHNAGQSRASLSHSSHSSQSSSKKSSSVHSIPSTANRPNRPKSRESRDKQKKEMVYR
UniProt Q5M848: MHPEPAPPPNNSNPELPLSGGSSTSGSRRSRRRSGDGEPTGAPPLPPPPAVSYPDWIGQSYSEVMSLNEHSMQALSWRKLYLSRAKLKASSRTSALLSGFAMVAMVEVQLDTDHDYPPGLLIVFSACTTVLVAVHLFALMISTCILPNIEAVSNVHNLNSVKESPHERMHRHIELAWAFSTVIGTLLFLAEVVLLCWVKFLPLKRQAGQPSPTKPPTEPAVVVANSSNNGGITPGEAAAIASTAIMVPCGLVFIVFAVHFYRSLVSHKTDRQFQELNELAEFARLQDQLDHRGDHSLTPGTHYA

Tests used:
[1] = target: large conductance Ca2+-activated potassium channel (BKCa) (rat (endogenous in mesenteric artery smooth muscle)) (UniProt Q62976); assay: proximity ligation; in situ PLA (Duolink) on fixed, permeabilised rat mesenteric artery VSMCs with goat anti-Orai1 and rabbit anti-BKCa antibodies (1:40 each); control with anti-Orai1 alone; detects proteins within <40 nm
[2] = target: large conductance Ca2+-activated potassium channel (BKCa) (rat (endogenous in mesenteric artery smooth muscle)) (UniProt Q62976); assay: co-IP; lysate of smooth muscle layer of rat mesenteric artery (1% Nonidet P-40, 150 mmol/L NaCl, 20 mmol/L Tris-HCl pH 8.0); 800 ug protein with 3 ug anti-Orai1 or anti-BKCa antibody overnight at 4°C, protein A agarose; immunoblot; preimmune IgG as control
[3] = target: Orai1 (rat (endogenous in mesenteric artery smooth muscle)) (UniProt Q5M848); assay: as above

| binding [1] | binding [2] | binding [3] | Substance |
| --- | --- | --- | --- |
| binds | binds | – | Orai1 (from UniProt Q5M848 1-304) |
| – | – | binds | large conductance Ca2+-activated potassium channel (BKCa) (from UniProt Q62976 1-1209) |
